Measurements reported in patent publication US20180273632A1 (BIOCEROX PRODUCTS B V, published 2018).
No constants are given. Whether binding was seen depends on the method and setting. Some results given as binding are weak or reduced against the parent protein; the word gives no strength.

By UniProt entry, the sequences of proteins in these tests, tags left out. Where a name states a change or a piece, a line headed by the entry shows the natural chain unless it says otherwise.
UniProt P43489: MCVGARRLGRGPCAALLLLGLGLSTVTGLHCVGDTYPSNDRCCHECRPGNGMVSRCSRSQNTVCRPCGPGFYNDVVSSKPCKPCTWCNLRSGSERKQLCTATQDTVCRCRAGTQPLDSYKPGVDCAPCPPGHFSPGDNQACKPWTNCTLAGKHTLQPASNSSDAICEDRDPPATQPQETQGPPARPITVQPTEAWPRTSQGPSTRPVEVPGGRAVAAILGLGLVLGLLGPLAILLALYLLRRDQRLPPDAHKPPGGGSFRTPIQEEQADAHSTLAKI

How the values were obtained:
[1] = target: T1, recombinant human CD134:human Fcγ (IgG1) fusion protein (R&D Systems) (human) (UniProt P43489+P01857); experiment: Western blot of CD134:Fcγ fusion protein
[2] = target: T1, recombinant human CD134:human Fcγ (IgG1) fusion protein (R&D Systems) (human); experiment: Western blot, reducing conditions, 100 ng/mL antibody
[3] = target: T1, recombinant human CD134:human Fcγ (IgG1) fusion protein (R&D Systems) (human); experiment: Western blot, non-reducing conditions, 100 ng/mL antibody
[4] = target: T1, recombinant human CD134:human Fcγ (IgG1) fusion protein (R&D Systems) (human); experiment: western blot, 250 ng/lane CD134:Fcγ fusion protein under conditions a-d of Figure 19A, 100 ng/mL antibody, HRP goat anti-mouse Fcγ

Measured: binding

B1: mouse anti-human CD134 monoclonal antibody clone 12H3 (antibody, mouse IgG1, V domains shown)
VH: EVQLQQSGPELVKPGASVKISCKTSGYTFKDYTMHWVKQSHGKSLEWIGGIYPNNGGSTYNQNFKDKATLTVDKSSSTAYMEFRSLTSEDSAVYYCARMGYHGPHLDFDVWGAGTTVTVSP
VL: DIVMTQSHKFMSTSLGDRVSITCKASQDVGAAVAWYQQKPGQSPKLLIYWASTRHTGVPDRFTGGGSGTDFTLTISNVQSEDLTDYFCQQYINYPLTFGGGTKLEIKR
notes: also called m12H3
binds: all assays above

B2: mouse anti-human CD134 monoclonal antibody clone 20E5 (antibody, mouse IgG1, V domains shown)
VH: EVQLQQSGPELVKPGASVKMSCKASGYTFTSYVMHWVKQKPGQGLEWIGYINPYNDGTKYNEKFKGKATLTSDKSSSTAYMELSSLTSEDSAVYYCANYYGSSLSMDYWGQGTSVTVSS
VL: DIQMTQTTSSLSASLGDRVTISCRASQDISNYLNWYQQKPDGTVKLLIYYTSRLHSGVPSRFSGSGSGTDYSLTISNLEQEDIATYFCQQGNTLPWTFGGGTKLEIKR
notes: also called m20E5
binds: all assays above
